Data as given in PubChem BioAssay AID1439 (NMMLSC, 2008).
Values joined by “and” are separate entries in the source; they are usually repeats but may differ in a detail not shown here. Identical values can stand only once. About 770 (0.35%) of roughly 220,000 compounds were called active. Inconclusive results, whose numbers are uncertain, are shown with a selection of clear calls. Rule as the data show it: active = binding response below about 49% or above about 150%; inconclusive = no clear call, values can overlap the other calls; inactive = in between.

Protein sequences, listed by entry. Tags and fused reporters are not part of them.
UniProt P09471, whole entry, looked up: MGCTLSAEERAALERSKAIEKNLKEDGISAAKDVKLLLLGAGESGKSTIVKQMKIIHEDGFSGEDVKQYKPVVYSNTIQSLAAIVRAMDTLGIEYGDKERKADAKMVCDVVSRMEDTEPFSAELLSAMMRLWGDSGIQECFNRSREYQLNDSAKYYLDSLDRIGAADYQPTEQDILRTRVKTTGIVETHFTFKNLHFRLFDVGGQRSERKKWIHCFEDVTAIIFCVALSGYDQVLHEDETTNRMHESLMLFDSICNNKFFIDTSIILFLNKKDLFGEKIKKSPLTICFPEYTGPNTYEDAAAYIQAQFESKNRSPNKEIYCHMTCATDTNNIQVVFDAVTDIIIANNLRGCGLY

target: Guanine nucleotide-binding protein G(o) subunit alpha (Homo sapiens) (UniProt P09471); experiment: RGS7-Galphao binding modulators, primary screen, biochemical, multiplexed bead flow cytometry (AID 1439); conditions: at 10 µM, actives lie on both sides;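 also: fluorescent Galphao held in activated GDP-AlF4 state binding bead-coupled RGS7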

Row | Structure (SMILES) | binding response (% of control)
1 | Cc1cccnc1CN1CCN(Cc2nc(C(c3ccccc3)c3ccccc3)no2)CC1 | inactive: 99%
2 | CCOc1ccc(N2C(=O)CC(N(CCc3ccc(S(N)(=O)=O)cc3)C(C)=O)C2=O)cc1 (stereo not given) | inconclusive: 101%
3 | CCNS(=O)(=O)c1ccc(CCC(=O)Nc2ccc(C(=O)OC)cc2)cc1 | inconclusive: 96.6%
4 | Cc1ccc(CNC(=O)c2cnc(-c3ccccn3)nc2C(F)(F)F)cc1 | inactive: 102%
5 | CCCCC(=O)Nc1cccc(C(C)O)c1 (stereo not given) | inactive: 102%
6 | COc1ccc(C=C2c3ccccc3C(=O)c3ccccc32)c(OC)c1 | inconclusive: 98.2%
7 | CCC1(c2ccc(Cl)cc2)NC(=S)N(c2ccc(C)c(C)c2)N1 (stereo not given) | inconclusive: 113%
8 | CN(C(=O)NC1CCCCC1)c1ccccc1 | inconclusive: 92.6%
9 | CC(C)[C@@H](N)C(=O)N/N=C/c1ccc2ncccc2c1 | inconclusive: 91.6%
10 | COc1cc(/C=N/NC(=O)Cn2ccc(C(F)(F)F)n2)cc(OC)c1OC | active: 23.3%
11 | CN(N)c1nc2ccccc2nc1C(F)(F)F | inconclusive: 113%
12 | Cc1cc(C)nc(SCCC(=O)N(C)C)n1 | inactive: 103%
13 | CCCCCCCCCCCC(=O)NC1CCS(=O)(=O)C1 (stereo not given) | inconclusive: 99.7%
14 | CN1C2CCC1CC(NC(=O)CSc1ccc(Cl)cc1)C2 (stereo not given) | inconclusive: 194%
15 | N#CCSc1n[nH]c2nc3c(c(=O)n12)C1(CCCCC1)Cc1ccccc1-3 | inconclusive: 79.3%
16 | Cc1c(NC(=O)COC(=O)C2(c3ccc(F)cc3)CCCC2)c(=O)n(-c2ccccc2)n1C | inconclusive: 79.6%
17 | Cc1ccc(CSc2nnc(CCCCCNC(=O)OC(C)(C)C)o2)cc1 | inconclusive: 118%
18 | CC1CCC(C(C)C)C(=O)/C1=C\c1ccc(NC(=O)CCC(=O)O)cc1 (stereo not given) | inconclusive: 91%
19 | COc1ccc(NC(=O)Cc2ccc(Cl)cc2Cl)cn1 | inconclusive: 105%
20 | O=C(Nc1ccc(Cl)cc1)N1CCN(Cc2ccc3c(c2)OCO3)CC1 | inconclusive: 85%
21 | O=C(c1cccc(C(F)(F)F)c1)N1CCc2c([nH]c3ccccc23)C1C(F)(F)F (stereo not given) | inconclusive: 208%
22 | Cc1ccc(O)c(NC(=O)c2cc(-c3ccc(F)cc3)on2)c1 | inconclusive: 93.1%
23 | O=C(COC(=O)Cc1ccccc1[N+](=O)[O-])NCC1CCCCC1 | inconclusive: 90.3%

Row | Structure (SMILES) | binding response (% of control)
24 | O=[N+]([O-])c1ccc(C2CC(c3ccccc3)=Nc3ccccc3S2)cc1 (stereo not given) | inconclusive: 77%
25 | O=c1[nH]cnc2c1oc1ccccc12 | inactive: 106%
26 | Cc1cc(/C=C2\SC(=O)NC2=O)c(C)n1-c1ccc(N2CCOCC2)cc1 | inconclusive: 95.1%
27 | CCOC(=O)Cc1nc2nc(C)cc(C)n2n1 | inconclusive: 92%
28 | CNC(=O)COc1ccc(C=O)cc1OC | inactive: 85.6%
29 | COc1ccc(OCC(O)CNC(=O)c2ccc(C)cc2)cc1 (stereo not given) | inconclusive: 96.2%
30 | CCc1ccc2oc(-c3ccc(OC)cc3)cc(=Nc3cccc(C(=O)O)c3)c2c1 | inactive: 89.2%
31 | CCOC(=O)C1=C(C)N(c2ccc(C)cc2)C(=O)/C1=C\c1ccc(O)c(OC)c1 | inconclusive: 117%
32 | CCC1=C(OC(=O)N(CC)CC)N2C(=O)OC(=NCc3ccccc3)[C@]2(C)[C@H]2C1=CC[C@H]1C(=O)N(CC(=O)OC)C(=O)[C@H]12 | inconclusive: 110%
33 | CC(C)(C)c1nc(NCCN2CCOCC2)c2nnn(Cc3ccccc3Cl)c2n1 | inactive: 125%
34 | N=C1C(c2ccccc2)=C(O)CN1c1cccc(S(=O)(=O)N2CCOCC2)c1 | inconclusive: 105%
35 | Cc1nc2ccccn2c1C(=O)NN=C1CCCC1 | inconclusive: 94.5%
36 | Cc1ccc(S(=O)(=O)N(C)C)cc1NC(=O)Nc1ccccc1F | inconclusive: 99.8%
37 | OCC1(Cc2ccc(Cl)cc2)CCN(Cc2ccc(F)c(F)c2)CC1 | inconclusive: 154%
38 | Cc1ccc(C(=O)NNC(=O)C2CCN(S(=O)(=O)c3ccc(C)cc3)CC2)cc1 | inconclusive: 88.9%
39 | CCOc1ccc(N=C(NC#N)SCC(=O)NC2CC2)cc1 | inactive: 96.5%
40 | CN1CCN(CC(=O)NN2CC(=O)N(c3ccc(F)cc3)CC2=O)CC1 | inconclusive: 77%
41 | CN(C)C(=O)CCCCCCCCC(=O)N(C)C | inconclusive: 120%
42 | O=C(CN1CCN(C/C=C/c2ccccc2)CC1)Nc1ccccc1C(=O)NC1CC1 | inconclusive: 87%
43 | COc1ccc(N2CCN(Cc3nc4cc(Cl)ccc4c(=O)[nH]3)CC2)cc1 | inconclusive: 135%
44 | CCOC(=O)c1ccc(NC(=O)c2ccc(OC(C)C)c(OC)c2)cc1 | inconclusive: 110%
45 | CCn1cc(-c2n[nH]c(=S)n2-c2ccc(C)cc2Br)c(=O)c2ccc(C)nc21 | inconclusive: 171%
46 | O=C(O)C1Sc2[nH]c(=O)sc2C2c3cc(Br)ccc3OC(=O)C12 (stereo not given) | inconclusive: 80.1%

Row | Structure (SMILES) | binding response (% of control)
47 | Cc1cc(C)c2c(n1)sc1c(=O)n(Cc3ccc(F)cc3)cnc12 | inconclusive: 66.7%
48 | COc1ccc(/C=C/C(=O)Nc2cc(S(=O)(=O)N3CCOCC3)ccc2C)cc1OC | inactive: 99.9%
49 | O=C1c2ccc3c4c(ccc(c24)C(=O)N1c1cccc(O)c1)C(=O)N(c1cccc(O)c1)C3=O | inconclusive: 105%
50 | COC(=O)N=Nc1c(O)[nH]c2ccc(Br)cc12 | inconclusive: 160%
51 | CCOc1ccccc1NC(=O)C1CCC(CNc2c(N3CCCCC3)c(=O)c2=O)CC1 (stereo not given) | inconclusive: 337%
52 | Cc1cc(C)c(NC(=O)CSc2ccc(-c3cccnc3)nn2)c(C)c1 | inactive: 93.5%
53 | Cc1nn2c(N3CCN(C)CC3)c3c(nc2c1-c1ccccc1)CCCC3 | inconclusive: 110%
54 | Cn1cnc(S(=O)(=O)Nc2cc(-c3ccc(Cl)cc3)nn2C)c1 | inconclusive: 106%
55 | CCOC(=O)C1Sc2[nH]c(=O)sc2C(c2ccc(Cl)cc2)C1C(=O)OCC (stereo not given) | active: -17.7%
56 | Cc1c(NC(=S)N/N=C/c2ccc(Br)cc2)c(=O)n(-c2ccccc2)n1C | inconclusive: 91%
57 | CCNc1ccc(S(=O)(=O)N(C)C)cc1NCC(=O)Nc1ccc(F)c(Cl)c1 | inactive: 101%
58 | CCCN1C(=O)c2ccc(C(=O)Nc3cc(C)on3)cc2C1=O | inactive: 98.6%
59 | Cc1ccc(S(=O)(=O)N(C)C)cc1NC(=O)COc1ccc(-c2nnco2)cc1 | inconclusive: 87.7%
60 | COC(=O)CCN(C(=O)c1cccc(OC(C)=O)c1)c1ccccn1 | inactive: 102%
61 | CCOC(=O)N1CCN(C(=O)/C(=C/c2ccc(Cl)cc2)NC(=O)c2ccccc2)CC1 | inconclusive: 93.7%
62 | CS(=O)(=NS(=O)(=O)c1ccc(Cl)cc1)c1ccccc1 (stereo not given) | inconclusive: 108%
63 | Cc1cc(-c2ccc(Cl)cc2)n2ncnc2n1 | inconclusive: 108%
64 | O=C1CCCC2=C1Sc1ccc(Cl)cc1N2 | inconclusive: 113%
65 | COc1ccc(C(NC(C)=O)c2ccc3cccnc3c2O)c(OC)c1 (stereo not given) | inactive: 55.9%
66 | O=C(O)/C=C/C(=O)Nc1ccc(-c2ccccc2)cc1 | inconclusive: 58.5% and inconclusive: 89.7%
67 | CCn1cc(C2=NC(CC(C)C)CO2)c2ccccc21 (stereo not given) | inconclusive: 192%
68 | CCOc1ccccc1NC(=S)Nc1ccc2cn[nH]c2c1 | inconclusive: 86.3%
69 | CCOC(=O)N1CCN(C(=O)CSc2ccc3nnc(-c4cccnc4)n3n2)CC1 | inconclusive: 117%

Row | Structure (SMILES) | binding response (% of control)
70 | COC(=O)C1=C(C(=O)OC)[C@@H]2N(C)c3ccc(OC)cc3[C@@]23C[C@@H](C(=O)OC)N=C3N1 | inconclusive: 93%
71 | O=C(Nc1cccc2ccccc12)N1CCN(c2ncccn2)CC1 | inactive: 99%
72 | CC1=CC(C)C2(COC(=O)Nc3ccccc3)COC(C)C1C2C (stereo not given) | inactive: 101%
73 | CC(=O)Nc1ccc(Oc2ccccc2)cc1 | inconclusive: 104%
74 | COC(=O)CCCC1=CC2=C(c3ccccc3)C(=O)C(C)(OC(=O)C3CCCC3)C(=O)C2=CN1CCc1ccccn1 (stereo not given) | inconclusive: 70.8%
75 | N#CC(C#N)=C1C(=O)N(CCN2CCOCC2)c2ccccc21 | inconclusive: 102%
76 | Cc1ccccc1C(=O)NC1CCSC1=O (stereo not given) | inconclusive: 87.7%
77 | Cc1ccc(Oc2ncccc2C(=O)NCC(=O)O)cc1 | inconclusive: 101%
78 | CN=C(N)NC(=O)Nc1c(C)cccc1C | inconclusive: 151%
79 | Cc1cc(SCC(=O)NC(=O)c2cccn2C)nc2ccccc12 | inconclusive: 84.4%
80 | Cc1ccc(Nc2nc(/N=C/NO)n[nH]2)cc1C | inactive: 96.2%
81 | Cc1ccn(C(=O)c2ccc(NC(=O)C3CC3)cc2)n1 | inactive: 97.8%
82 | O=S(=O)(/C=C/c1ccccc1)N1CCN(c2nc(-c3ccccc3)nc3ccccc23)CC1 | inconclusive: 102%
83 | COc1ccc(C(=O)N/N=C2\CCS(=O)(=O)c3ccc(F)cc32)cc1OC | inconclusive: 100%
84 | COc1ccc(/C=N/N2CCOCC2)cc1Cn1cc([N+](=O)[O-])cn1 | inconclusive: 66.3%
85 | O=C(O)c1nnn(-c2cc(C(F)(F)F)cc(C(F)(F)F)c2)c1-c1ccccc1 | inconclusive: -10.3%
86 | Cc1cc(NC(=O)NCC(F)(F)F)no1 | inconclusive: 114%
87 | O=C(O)c1ccc(N2C(=O)C3C4c5ccccc5C(Br)(c5ccccc54)C3C2=O)cc1 (stereo not given) | inactive: 97.1%
88 | NC(=O)Nc1ccc(C(=O)OCC(=O)NC2CCCCC2)cc1 | inactive: 105%
89 | O=C(Oc1ccccc1)N(c1ccccc1)c1ccccc1 | inconclusive: 30%
90 | CCOC(=O)C1(CCc2ccccc2)CCN(C(=O)CCn2cncn2)CC1 | inactive: 98.7%
